This note sets out measurements from doi:10.1101/2020.07.12.199372.

Protein sequences, listed by entry. Tags and fused reporters are not part of them.
UniProt Q9UL03: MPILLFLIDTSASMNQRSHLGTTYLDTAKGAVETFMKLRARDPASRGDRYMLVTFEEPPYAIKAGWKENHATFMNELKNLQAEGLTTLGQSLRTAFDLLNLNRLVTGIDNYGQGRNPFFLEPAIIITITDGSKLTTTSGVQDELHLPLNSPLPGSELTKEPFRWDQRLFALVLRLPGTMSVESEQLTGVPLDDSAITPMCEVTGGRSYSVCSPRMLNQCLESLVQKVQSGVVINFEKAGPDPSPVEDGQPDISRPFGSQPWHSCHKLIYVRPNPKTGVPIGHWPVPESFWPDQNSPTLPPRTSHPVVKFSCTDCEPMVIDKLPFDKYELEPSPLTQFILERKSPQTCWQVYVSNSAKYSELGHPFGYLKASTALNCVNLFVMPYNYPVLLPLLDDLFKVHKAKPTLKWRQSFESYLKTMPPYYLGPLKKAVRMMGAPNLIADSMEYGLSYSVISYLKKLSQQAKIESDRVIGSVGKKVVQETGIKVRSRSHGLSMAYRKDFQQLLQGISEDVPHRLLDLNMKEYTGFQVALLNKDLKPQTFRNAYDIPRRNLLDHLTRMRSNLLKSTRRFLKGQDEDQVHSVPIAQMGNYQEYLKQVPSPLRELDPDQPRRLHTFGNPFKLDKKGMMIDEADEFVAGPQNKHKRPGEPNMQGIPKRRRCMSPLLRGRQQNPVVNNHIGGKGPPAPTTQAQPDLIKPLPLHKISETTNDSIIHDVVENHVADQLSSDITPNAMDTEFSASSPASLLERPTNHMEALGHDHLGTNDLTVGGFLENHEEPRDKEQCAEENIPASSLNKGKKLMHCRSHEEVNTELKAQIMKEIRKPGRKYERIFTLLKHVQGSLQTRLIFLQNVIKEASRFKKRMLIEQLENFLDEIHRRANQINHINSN
UniProt P36873: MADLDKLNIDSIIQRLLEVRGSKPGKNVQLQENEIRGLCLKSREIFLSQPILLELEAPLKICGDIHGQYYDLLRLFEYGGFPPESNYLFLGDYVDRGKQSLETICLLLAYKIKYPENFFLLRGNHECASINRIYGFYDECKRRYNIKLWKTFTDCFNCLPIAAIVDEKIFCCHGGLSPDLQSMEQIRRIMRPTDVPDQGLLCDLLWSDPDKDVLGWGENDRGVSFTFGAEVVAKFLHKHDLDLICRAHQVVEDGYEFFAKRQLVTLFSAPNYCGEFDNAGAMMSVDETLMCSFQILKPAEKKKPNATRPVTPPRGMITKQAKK
UniProt P67775: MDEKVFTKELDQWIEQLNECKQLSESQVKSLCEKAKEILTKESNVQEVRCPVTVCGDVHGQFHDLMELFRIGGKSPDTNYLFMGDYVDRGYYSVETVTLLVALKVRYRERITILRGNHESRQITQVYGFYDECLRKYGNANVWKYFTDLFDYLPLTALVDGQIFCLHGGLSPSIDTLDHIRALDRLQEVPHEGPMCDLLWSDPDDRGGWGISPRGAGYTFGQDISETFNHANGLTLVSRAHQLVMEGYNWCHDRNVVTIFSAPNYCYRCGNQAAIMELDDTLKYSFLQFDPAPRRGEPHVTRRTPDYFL
UniProt P30153: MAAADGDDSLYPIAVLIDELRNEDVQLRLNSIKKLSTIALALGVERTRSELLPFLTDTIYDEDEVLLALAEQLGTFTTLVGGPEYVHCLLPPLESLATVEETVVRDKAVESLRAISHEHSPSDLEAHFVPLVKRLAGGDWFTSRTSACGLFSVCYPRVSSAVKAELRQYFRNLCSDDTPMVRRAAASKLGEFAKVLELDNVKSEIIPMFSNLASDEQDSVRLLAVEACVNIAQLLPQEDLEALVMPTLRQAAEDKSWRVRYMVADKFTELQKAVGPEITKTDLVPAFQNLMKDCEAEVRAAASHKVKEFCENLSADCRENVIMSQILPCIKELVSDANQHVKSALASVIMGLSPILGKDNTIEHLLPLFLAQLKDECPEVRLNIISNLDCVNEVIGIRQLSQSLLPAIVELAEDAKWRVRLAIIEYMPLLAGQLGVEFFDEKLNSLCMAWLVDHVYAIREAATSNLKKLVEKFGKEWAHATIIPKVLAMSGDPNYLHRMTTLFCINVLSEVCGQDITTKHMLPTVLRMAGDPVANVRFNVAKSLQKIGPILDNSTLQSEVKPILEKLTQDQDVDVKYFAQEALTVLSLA
UniProt P30154: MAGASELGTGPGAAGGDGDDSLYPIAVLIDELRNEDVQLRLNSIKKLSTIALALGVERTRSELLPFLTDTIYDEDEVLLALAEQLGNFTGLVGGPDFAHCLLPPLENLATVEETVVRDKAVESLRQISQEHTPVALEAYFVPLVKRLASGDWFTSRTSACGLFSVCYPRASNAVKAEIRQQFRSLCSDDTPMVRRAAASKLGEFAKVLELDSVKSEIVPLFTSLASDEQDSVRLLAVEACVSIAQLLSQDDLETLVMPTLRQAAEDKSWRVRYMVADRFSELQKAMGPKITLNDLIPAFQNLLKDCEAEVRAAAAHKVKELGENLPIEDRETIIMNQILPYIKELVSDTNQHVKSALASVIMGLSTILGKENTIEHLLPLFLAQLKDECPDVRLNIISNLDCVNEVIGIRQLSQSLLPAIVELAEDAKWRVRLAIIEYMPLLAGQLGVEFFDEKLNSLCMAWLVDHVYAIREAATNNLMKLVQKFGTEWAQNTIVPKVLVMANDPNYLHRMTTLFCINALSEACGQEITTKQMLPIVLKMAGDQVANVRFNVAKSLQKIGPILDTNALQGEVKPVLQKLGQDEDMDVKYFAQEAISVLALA

Read-outs that look alike come from different tables or passages of the source. These are yes or no findings as the source states them, for the method shown. Binding seen in cells or lysates may run through a third protein. Here binding means that the protein was enriched with, or labelled near, the bait; the list need not be complete.

The target of test [1] is Integrator complex subunit INTS6 (human (endogenous in THP-1, MV4;11 and HeLa)) (UniProt Q9UL03). Kind of test: affinity purification with mass spectrometry.
Test [2] has the same target. Kind of test: affinity purification with mass spectrometry. The source holds these as a separate data set.

With “PPP1CC subunit of PP1 (from UniProt P36873 1-323) (enzyme)”, the binding entry in test [1] is given as “binds”. As to “PPP2CA catalytic subunit (PP2A-C) of the PP2A phosphatase complex (from UniProt P67775 1-309) (enzyme)”, the binding entry in test [2] and in test [1] was “binds” each time.

As for “PPP2R1A structural subunit of the PP2A phosphatase complex (from UniProt P30153 1-589)”, the binding entry in test [2] and in test [1] was “binds” in each case. In the case of “PPP2R1B structural subunit of the PP2A phosphatase complex (from UniProt P30154 1-601)”, the binding entry in test [1] is “binds”.
